Measurements published in article doi:10.1101/2021.12.14.472597.

Molecular target: AtSK31, GFP-tagged (Arabidopsis thaliana)
Assay: co-IP

B1: HOPW1-1-…2 (WIN2, AT4G31750), HA-tagged (protein, UniProt Q8RXV3 1-311)
chain: MGYLNSVLSSSSQVHSDDGPVSGGGLSQNGKFSYGYASSPGKRSSMEDFYETRIDGVEGEIVGLFGVFDGHGGARAAEYVKQNLFSNLIRHPKFISDTTAAIADAYNQTDSEFLKSENSQNRDAGSTASTAILVGDRLLVANVGDSRAVICRGGNAIAVSRDHKPDQSDERQRIEDAGGFVMWAGTWRVGGVLAVSRAFGDRLLKQYVVADPEIQEEKVDSSLEFLILASDGLWDVVSNEEAVGMIKAIEDPEEGAKRLMMEAYQRGSADNITCVVVRFFSDQAGGIGSSSTNIPIDHGIVPDRISGDSST
**Q.** For B1, which binding is on record?
**A.** binds

Results are given in words; binding and its absence hold for the method and conditions named. Binding seen in cells or lysates may run through a third protein. A result given as binding can be weak or reduced; the word gives no strength. Where a sequence is shown, tags or fusion partners need not be part of it.
